{"source": "PubChem BioAssay AID1053208 (Peter MacCallum Cancer Centre, 2014)", "purpose": "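Synthetic lethal interactions between gene loss and doxorubicin in osteosarcoma cells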 (primary screen)", "system": "mouse osteosarcoma cells, early-passage culture from an engineered mouse model of fibroblastic bone tumour", "reagent": "siRNA pool against mouse genes, 40 nM", "timing": "about 120 h (48 h before drug, then 72 h with drug)", "conditions": "doxorubicin 100 nM for 72 h, roughly 30-40% inhibitory dose", "measured": "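Luminescent ATP signal taken as viability with or without 100 nM doxorubicin for 72 h; mean of two wells set against non-targeting siRNA and turned into robust z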", "reading the numbers": "viability z-score with doxorubicin: higher = more viable cells under doxorubicin; viability z-score without drug: higher = more viable cells with knock-down alone", "hit rule": "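a pool counts as active when its viability z-score with doxorubicin is -2 or below and its z-score without drug lies between -2 and 2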", "note": "The deposit covers about 17,000 reagents; below is a part drawn at random. In the full data, 788 (4.7%) were called active. 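Calls rest on z-score classes alone; an extra cut-off of viability at most 70% of control was not applied to them.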 Further read-outs or replicates are left out here."}
{"gene symbol": "Zfp473", "combined z-score class": "no change with or without drug", "viability z-score with doxorubicin": 0.67, "viability z-score without drug": -0.34, "outcome": "inactive"}
{"gene symbol": "BC107364", "combined z-score class": "no change with or without drug", "viability z-score with doxorubicin": -0.22, "viability z-score without drug": 1.85, "outcome": "inactive"}
{"gene symbol": "Coa4", "combined z-score class": "high cell count without drug only", "viability z-score with doxorubicin": 0.67, "viability z-score without drug": 2.19, "outcome": "inactive"}
{"gene symbol": "Bud23", "combined z-score class": "no change with or without drug", "viability z-score with doxorubicin": 1.12, "viability z-score without drug": 0.51, "outcome": "inactive"}
{"gene symbol": "Morc4", "combined z-score class": "no change with or without drug", "viability z-score with doxorubicin": -0.22, "viability z-score without drug": -0.17, "outcome": "inactive"}
{"gene symbol": "Ugt2b1", "combined z-score class": "no change with or without drug", "viability z-score with doxorubicin": 1.35, "viability z-score without drug": -0.67, "outcome": "inactive"}
{"gene symbol": "Ift70a1", "combined z-score class": "high without drug; low with doxorubicin", "viability z-score with doxorubicin": -2.25, "viability z-score without drug": 2.02, "outcome": "inactive"}
{"gene symbol": "Slc6a12", "combined z-score class": "no change with or without drug", "viability z-score with doxorubicin": 1.46, "viability z-score without drug": 1.18, "outcome": "inactive"}
{"gene symbol": "Tfcp2l1", "combined z-score class": "no change with or without drug", "viability z-score with doxorubicin": 0.9, "viability z-score without drug": 1.69, "outcome": "inactive"}
{"gene symbol": "Odf4", "combined z-score class": "no change with or without drug", "viability z-score with doxorubicin": 0.45, "viability z-score without drug": -0.17, "outcome": "inactive"}
{"gene symbol": "Il36g", "combined z-score class": "low cell count with doxorubicin only", "viability z-score with doxorubicin": -2.14, "viability z-score without drug": -1.35, "outcome": "active"}
{"gene symbol": "Tcea3", "combined z-score class": "no change with or without drug", "viability z-score with doxorubicin": 0, "viability z-score without drug": 1.69, "outcome": "inactive"}
{"gene symbol": "Msh4", "combined z-score class": "low cell count with doxorubicin only", "viability z-score with doxorubicin": -2.02, "viability z-score without drug": -1.52, "outcome": "active"}
{"gene symbol": "Aprt", "combined z-score class": "no change with or without drug", "viability z-score with doxorubicin": 0, "viability z-score without drug": -1.69, "outcome": "inactive"}
{"gene symbol": "Snx19", "combined z-score class": "no change with or without drug", "viability z-score with doxorubicin": 0.22, "viability z-score without drug": -0.51, "outcome": "inactive"}
{"gene symbol": "Ankrd69", "combined z-score class": "no change with or without drug", "viability z-score with doxorubicin": -1.35, "viability z-score without drug": 1.52, "outcome": "inactive"}
{"gene symbol": "Capn8", "combined z-score class": "no change with or without drug", "viability z-score with doxorubicin": -0.45, "viability z-score without drug": -0.51, "outcome": "inactive"}
{"gene symbol": "Traf4", "combined z-score class": "no change with or without drug", "viability z-score with doxorubicin": -1.35, "viability z-score without drug": -0.17, "outcome": "inactive"}
{"gene symbol": "Mfn1", "combined z-score class": "low cell count with doxorubicin only", "viability z-score with doxorubicin": -2.25, "viability z-score without drug": -0.17, "outcome": "active"}
{"gene symbol": "H2bc21", "combined z-score class": "no change with or without drug", "viability z-score with doxorubicin": 0.34, "viability z-score without drug": -0.17, "outcome": "inactive"}
{"gene symbol": "Rcan1", "combined z-score class": "no change with or without drug", "viability z-score with doxorubicin": 0.22, "viability z-score without drug": -0.84, "outcome": "inactive"}
{"gene symbol": "Atp6v1h", "combined z-score class": "no change with or without drug", "viability z-score with doxorubicin": -0.79, "viability z-score without drug": -0.84, "outcome": "inactive"}
{"gene symbol": "Tigd5", "combined z-score class": "no change with or without drug", "viability z-score with doxorubicin": 0.45, "viability z-score without drug": -0.17, "outcome": "inactive"}
{"gene symbol": "Lrfn3", "combined z-score class": "no change with or without drug", "viability z-score with doxorubicin": -1.12, "viability z-score without drug": -1.01, "outcome": "inactive"}
{"gene symbol": "Or5m3", "combined z-score class": "no change with or without drug", "viability z-score with doxorubicin": -0.79, "viability z-score without drug": -1.85, "outcome": "inactive"}
{"gene symbol": "D630005C06RIK", "combined z-score class": "no change with or without drug", "viability z-score with doxorubicin": -1.57, "viability z-score without drug": 1.52, "outcome": "inactive"}
{"gene symbol": "Ankra2", "combined z-score class": "no change with or without drug", "viability z-score with doxorubicin": -0.22, "viability z-score without drug": 0.51, "outcome": "inactive"}
{"gene symbol": "Pnma3", "combined z-score class": "high cell count without drug only", "viability z-score with doxorubicin": 1.8, "viability z-score without drug": 2.19, "outcome": "inactive"}

A few values from above:
Tcea3, combined z-score class = no change with or without drug
Value of H2bc21 in “viability z-score without drug”: -0.17
